Measurements taken from patent publication US11091522B2, “Peptidomimetic macrocycles and uses thereof” (priority 2018, dated 2021).
For at least one compound, name, drawing or mass did not settle the structure.

Key:
[1] = system: SJSA1 osteosarcoma cancer cells
[2] = system: MCF7 cells; assay type: cell-based, human; settings: MCF7, 24 hour pulse treatment

## CCN1CCN(Cc2ccc(Nc3ncc(F)c(-c4cc(F)c5nc(C)n(C(C)C)c5c4)n3)nc2)CC1 [abemaciclib]
[1]
  potency compared with palbociclib: more potent in SJSA1 than palbociclib
[1]; 24 hour pulse treatment with CDK4/6 inhibitor alone
  anti-proliferative activity: limited potency in anti-proliferative activity
[2]
  potency of pulse treatment compared with palbociclib: more potent than a pulse treatment with palbociclib
